Measured values from the supplement of paper PMC6411743.
± gives the standard deviation of the averaged measurements. The list shows a part of the results.

Chains of the proteins cited; added tags and fusions are not shown. Lines headed by an entry give the natural chain unless they say otherwise; changes in a name come on top.
UniProt P37198: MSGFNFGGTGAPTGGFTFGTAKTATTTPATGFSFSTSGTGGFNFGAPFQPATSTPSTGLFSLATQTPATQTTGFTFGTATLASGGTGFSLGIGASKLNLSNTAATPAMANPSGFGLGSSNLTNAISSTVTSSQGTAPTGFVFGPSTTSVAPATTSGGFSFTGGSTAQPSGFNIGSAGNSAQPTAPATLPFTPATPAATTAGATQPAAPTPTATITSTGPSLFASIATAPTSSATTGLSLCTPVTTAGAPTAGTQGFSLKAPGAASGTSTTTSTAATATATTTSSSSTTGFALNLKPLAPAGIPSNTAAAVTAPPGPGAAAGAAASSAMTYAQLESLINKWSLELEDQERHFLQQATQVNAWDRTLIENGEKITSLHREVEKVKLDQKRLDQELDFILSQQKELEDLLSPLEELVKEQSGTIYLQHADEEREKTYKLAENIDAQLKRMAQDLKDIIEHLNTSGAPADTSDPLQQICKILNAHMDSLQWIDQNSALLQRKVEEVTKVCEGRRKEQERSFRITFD
UniProt P46940, whole entry: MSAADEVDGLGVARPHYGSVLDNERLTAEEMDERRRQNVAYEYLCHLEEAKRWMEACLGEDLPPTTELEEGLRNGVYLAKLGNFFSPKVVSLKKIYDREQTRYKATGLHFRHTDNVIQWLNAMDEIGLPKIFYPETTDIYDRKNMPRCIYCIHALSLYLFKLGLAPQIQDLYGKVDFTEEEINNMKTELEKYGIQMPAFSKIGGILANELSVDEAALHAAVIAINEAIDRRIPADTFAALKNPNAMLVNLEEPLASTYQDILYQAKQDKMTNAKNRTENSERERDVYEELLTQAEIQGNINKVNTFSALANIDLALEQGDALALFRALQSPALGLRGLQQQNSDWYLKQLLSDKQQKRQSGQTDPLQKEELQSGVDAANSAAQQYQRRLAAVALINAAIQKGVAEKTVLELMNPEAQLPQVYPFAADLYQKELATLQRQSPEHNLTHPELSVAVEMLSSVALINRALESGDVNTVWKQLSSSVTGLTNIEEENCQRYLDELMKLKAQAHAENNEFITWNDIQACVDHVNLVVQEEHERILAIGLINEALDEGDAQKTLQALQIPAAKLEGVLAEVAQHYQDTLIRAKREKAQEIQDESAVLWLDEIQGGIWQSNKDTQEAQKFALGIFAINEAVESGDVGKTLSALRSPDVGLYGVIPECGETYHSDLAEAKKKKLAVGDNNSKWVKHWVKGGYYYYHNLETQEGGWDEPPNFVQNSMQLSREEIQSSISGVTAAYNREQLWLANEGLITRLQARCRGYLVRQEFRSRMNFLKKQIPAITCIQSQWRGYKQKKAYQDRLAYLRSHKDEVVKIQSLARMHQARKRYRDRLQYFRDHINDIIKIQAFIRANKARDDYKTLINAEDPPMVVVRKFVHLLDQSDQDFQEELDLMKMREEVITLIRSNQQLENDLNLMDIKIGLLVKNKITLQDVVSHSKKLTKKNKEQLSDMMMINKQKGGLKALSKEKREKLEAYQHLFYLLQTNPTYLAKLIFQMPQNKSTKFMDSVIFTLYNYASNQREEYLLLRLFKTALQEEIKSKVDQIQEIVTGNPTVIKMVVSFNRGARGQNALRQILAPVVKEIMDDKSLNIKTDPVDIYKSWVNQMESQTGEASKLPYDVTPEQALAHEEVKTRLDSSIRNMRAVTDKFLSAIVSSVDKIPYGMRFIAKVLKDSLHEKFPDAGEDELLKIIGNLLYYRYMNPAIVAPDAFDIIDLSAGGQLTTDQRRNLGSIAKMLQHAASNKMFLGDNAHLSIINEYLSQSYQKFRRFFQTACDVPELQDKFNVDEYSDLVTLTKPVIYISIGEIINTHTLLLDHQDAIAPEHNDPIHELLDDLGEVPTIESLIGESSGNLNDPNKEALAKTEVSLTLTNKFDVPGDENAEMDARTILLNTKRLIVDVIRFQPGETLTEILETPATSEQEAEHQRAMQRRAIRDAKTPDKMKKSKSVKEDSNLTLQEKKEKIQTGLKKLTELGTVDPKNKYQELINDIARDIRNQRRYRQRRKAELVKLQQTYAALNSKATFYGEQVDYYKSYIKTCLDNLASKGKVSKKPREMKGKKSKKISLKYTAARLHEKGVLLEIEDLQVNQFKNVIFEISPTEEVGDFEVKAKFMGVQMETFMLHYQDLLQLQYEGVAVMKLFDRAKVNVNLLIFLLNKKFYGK
UniProt P31785: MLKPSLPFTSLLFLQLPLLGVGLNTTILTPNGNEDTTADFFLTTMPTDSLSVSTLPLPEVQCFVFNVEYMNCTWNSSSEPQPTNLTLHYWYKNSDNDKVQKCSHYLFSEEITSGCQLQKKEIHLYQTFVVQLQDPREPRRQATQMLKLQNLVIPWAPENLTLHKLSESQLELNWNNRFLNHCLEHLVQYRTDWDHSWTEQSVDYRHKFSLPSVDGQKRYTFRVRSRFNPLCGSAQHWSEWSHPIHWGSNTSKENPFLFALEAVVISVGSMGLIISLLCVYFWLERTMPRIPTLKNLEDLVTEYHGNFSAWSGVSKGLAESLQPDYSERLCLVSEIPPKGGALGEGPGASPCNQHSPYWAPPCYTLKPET
UniProt P49903: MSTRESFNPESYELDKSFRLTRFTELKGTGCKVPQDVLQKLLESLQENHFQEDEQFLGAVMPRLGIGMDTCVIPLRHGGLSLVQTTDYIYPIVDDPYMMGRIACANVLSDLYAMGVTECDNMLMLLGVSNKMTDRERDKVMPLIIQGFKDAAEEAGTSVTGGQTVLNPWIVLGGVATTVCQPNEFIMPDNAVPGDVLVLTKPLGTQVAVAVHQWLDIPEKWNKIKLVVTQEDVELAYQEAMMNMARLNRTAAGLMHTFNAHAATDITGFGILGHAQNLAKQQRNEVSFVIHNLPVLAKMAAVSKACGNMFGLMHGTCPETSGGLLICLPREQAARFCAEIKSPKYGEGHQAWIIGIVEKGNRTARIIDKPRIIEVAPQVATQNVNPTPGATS
UniProt P27986, whole entry: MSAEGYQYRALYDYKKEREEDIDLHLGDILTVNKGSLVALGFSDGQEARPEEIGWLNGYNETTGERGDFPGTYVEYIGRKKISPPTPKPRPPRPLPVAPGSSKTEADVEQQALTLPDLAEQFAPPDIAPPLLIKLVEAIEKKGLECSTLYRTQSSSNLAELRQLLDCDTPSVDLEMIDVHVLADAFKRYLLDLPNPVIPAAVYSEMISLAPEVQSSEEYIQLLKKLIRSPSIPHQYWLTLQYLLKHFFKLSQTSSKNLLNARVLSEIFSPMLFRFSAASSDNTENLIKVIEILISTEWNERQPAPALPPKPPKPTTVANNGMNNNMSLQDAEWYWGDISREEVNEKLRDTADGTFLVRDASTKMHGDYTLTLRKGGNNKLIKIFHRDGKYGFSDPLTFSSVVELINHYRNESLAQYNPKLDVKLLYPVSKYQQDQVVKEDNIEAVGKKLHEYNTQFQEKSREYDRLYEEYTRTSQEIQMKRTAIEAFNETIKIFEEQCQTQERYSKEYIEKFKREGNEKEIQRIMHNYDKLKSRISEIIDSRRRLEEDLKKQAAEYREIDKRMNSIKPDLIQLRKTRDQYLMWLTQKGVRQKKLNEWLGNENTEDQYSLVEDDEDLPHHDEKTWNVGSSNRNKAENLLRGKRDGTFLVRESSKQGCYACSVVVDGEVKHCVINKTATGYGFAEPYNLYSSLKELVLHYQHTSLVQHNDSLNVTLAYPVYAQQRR
UniProt P35250, whole entry: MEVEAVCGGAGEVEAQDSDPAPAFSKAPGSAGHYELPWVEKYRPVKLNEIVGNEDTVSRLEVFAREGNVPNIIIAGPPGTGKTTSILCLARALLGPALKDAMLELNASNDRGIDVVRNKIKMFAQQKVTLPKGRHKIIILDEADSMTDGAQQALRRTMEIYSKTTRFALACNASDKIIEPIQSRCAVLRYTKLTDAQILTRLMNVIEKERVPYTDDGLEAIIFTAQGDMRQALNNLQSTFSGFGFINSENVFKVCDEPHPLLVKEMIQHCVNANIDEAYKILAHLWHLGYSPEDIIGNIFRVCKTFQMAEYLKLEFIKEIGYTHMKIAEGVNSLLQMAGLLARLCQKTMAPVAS
UniProt P33527: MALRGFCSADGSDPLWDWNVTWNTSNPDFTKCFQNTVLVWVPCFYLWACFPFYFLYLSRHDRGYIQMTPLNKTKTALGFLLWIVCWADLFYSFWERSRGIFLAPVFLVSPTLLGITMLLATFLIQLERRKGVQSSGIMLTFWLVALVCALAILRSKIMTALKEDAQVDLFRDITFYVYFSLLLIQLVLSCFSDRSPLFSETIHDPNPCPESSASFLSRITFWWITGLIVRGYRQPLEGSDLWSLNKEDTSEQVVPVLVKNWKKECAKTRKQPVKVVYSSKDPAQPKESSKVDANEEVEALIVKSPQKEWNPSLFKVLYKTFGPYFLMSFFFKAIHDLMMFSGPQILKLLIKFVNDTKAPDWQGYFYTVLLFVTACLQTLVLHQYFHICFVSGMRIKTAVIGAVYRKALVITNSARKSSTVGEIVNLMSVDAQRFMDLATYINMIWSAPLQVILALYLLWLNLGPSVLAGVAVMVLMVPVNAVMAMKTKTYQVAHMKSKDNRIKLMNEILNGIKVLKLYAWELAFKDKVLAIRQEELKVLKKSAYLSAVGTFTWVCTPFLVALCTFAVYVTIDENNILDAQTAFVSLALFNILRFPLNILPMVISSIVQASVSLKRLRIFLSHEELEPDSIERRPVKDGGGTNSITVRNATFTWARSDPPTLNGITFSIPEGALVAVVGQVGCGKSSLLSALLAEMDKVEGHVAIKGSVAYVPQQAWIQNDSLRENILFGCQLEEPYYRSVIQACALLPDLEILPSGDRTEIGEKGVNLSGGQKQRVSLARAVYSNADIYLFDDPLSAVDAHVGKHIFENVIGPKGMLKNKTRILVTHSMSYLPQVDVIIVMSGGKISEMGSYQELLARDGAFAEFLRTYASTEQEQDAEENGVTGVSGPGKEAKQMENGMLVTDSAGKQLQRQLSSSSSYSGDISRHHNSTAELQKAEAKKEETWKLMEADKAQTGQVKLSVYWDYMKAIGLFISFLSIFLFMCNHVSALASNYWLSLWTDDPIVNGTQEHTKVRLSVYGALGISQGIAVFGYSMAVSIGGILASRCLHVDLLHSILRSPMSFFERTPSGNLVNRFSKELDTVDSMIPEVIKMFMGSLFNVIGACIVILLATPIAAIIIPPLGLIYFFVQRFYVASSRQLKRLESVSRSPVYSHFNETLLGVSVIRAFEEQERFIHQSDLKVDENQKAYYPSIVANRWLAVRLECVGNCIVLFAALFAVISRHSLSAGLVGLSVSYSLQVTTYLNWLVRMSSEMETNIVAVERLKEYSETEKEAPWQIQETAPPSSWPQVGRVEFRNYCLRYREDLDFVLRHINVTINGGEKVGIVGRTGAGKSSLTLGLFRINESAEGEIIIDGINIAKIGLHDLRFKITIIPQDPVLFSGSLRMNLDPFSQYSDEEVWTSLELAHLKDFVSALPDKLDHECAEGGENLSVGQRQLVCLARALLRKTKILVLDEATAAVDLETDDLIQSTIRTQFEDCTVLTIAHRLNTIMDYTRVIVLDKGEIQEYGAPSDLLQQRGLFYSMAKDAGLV
UniProt P42773: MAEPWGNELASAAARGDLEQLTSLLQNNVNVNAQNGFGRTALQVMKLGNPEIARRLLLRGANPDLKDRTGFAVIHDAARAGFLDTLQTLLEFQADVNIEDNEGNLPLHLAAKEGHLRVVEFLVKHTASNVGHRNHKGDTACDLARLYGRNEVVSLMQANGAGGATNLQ
UniProt P42331: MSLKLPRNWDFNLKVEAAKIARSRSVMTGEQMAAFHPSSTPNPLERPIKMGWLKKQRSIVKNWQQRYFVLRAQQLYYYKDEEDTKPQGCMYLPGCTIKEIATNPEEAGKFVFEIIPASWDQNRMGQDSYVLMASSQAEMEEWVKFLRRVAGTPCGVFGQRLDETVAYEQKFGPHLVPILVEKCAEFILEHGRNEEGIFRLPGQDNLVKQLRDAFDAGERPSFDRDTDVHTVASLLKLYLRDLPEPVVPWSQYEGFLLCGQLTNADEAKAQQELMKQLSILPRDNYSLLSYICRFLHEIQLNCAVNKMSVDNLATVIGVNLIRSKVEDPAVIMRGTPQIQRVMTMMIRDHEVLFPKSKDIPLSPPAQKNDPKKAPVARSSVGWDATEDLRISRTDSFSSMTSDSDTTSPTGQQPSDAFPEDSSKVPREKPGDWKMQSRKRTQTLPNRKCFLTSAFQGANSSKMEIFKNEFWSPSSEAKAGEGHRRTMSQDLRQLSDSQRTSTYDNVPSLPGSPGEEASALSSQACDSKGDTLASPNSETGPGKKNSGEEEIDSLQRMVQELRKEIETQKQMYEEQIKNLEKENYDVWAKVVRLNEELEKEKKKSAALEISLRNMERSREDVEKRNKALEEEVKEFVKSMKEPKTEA

Compound: Nc1nc2c(ncn2[C@@H]2O[C@H](COP(=O)(O)OP(=O)(O)OP(=O)(O)O)[C@@H](O)[C@H]2O)c(=O)[nH]1 [guanosine triphosphate]
Experiment: NP40-soluble protein abundance relative to vehicle (solubility fold change) (ratio); higher = more soluble protein in presence of GTP
Method in brief: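 Data come from three independent experiments in which Dounce-homogenised Jurkat crude lysate was treated at eight concentrations from 0.1 to 10 mM. Treatment ran 10 min at room temperature and then 3 min at 37 °C, after which 0.8% NP40 and benzonase were added for 60 min at 4 °C before ultracentrifugation. The supernatant underwent TMT labelling and LC-MS/MS, and vsn-normalised intensities were expressed as fold change against the detergent-processed vehicle in each replicate.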

Target | NP40-soluble protein abundance (concentration: 0.1mM) | NP40-soluble protein abundance (concentration: 0.5mM) | NP40-soluble protein abundance (concentration: 1mM) | NP40-soluble protein abundance (concentration: 2mM) | NP40-soluble protein abundance (concentration: 4mM) | NP40-soluble protein abundance (concentration: 6mM) | NP40-soluble protein abundance (concentration: 8mM) | NP40-soluble protein abundance (concentration: 10mM)
NUP62 (UniProt P37198) | 0.8692 ± 0.0052 | 0.889 ± 0.025 | 1.01 ± 0.021 | 0.955 ± 0.038 | 0.988 ± 0.064 | 1.06 ± 0.053 | 1.08 ± 0.052 | 1.19 ± 0.047
UniProt P36507 | 0.969 ± 0.0035 | 0.978 ± 0.017 | 0.956 ± 0.037 | 0.908 ± 0.044 | 0.891 ± 0.04 | 0.891 ± 0.083 | 0.874 ± 0.039 | 0.849 ± 0.065
IQGAP1 (UniProt P46940) | 0.9994 ± 0.0077 | 1.03 ± 0.025 | 0.933 ± 0.017 | 0.935 ± 0.03 | 0.931 ± 0.0097 | 0.932 ± 0.021 | 0.917 ± 0.026 | 0.895 ± 0.043
IL2RG (UniProt P31785) | 0.962 ± 0.074 | 0.927 ± 0.11 | 0.961 ± 0.085 | 0.934 ± 0.1 | 0.952 ± 0.074 | 0.929 ± 0.029 | 0.93 ± 0.11 | 0.935 ± 0.08
UniProt P28749 and related entries | 1.01 ± 0.05 | 0.992 ± 0.017 | 1.04 ± 0.015 | 1.02 ± 0.045 | 1.022 ± 0.0058 | 1.03 ± 0.053 | 1.01 ± 0.034 | 1.02 ± 0.015
UniProt P49903 and related entries | 1 ± 0.011 | 1.02 ± 0.025 | 0.981 ± 0.018 | 0.9601 ± 0.0077 | 0.986 ± 0.023 | 0.947 ± 0.016 | 0.956 ± 0.018 | 0.925 ± 0.061
PIK3R1 (UniProt P27986) | 1.05 ± 0.042 | 1.05 ± 0.059 | 0.975 ± 0.019 | 0.972 ± 0.023 | 0.96 ± 0.046 | 0.939 ± 0.022 | 0.939 ± 0.017 | 0.9 ± 0.059
RFC2 (UniProt P35250) | 1.08 ± 0.011 | 1.08 ± 0.049 | 1.11 ± 0.05 | 1.16 ± 0.086 | 1.23 ± 0.075 | 1.2 ± 0.092 | 1.21 ± 0.057 | 1.17 ± 0.042
UniProt P33527 and related entries | 0.9975 ± 0.0032 | 0.997 ± 0.043 | 0.954 ± 0.018 | 0.969 ± 0.03 | 0.953 ± 0.028 | 0.948 ± 0.017 | 0.939 ± 0.02 | 0.9274 ± 0.0024
GNAQ (UniProt P50148) | 0.986 ± 0.015 | 1.02 ± 0.013 | 0.959 ± 0.056 | 0.942 ± 0.053 | 0.903 ± 0.03 | 0.927 ± 0.04 | 0.878 ± 0.03 | 0.886 ± 0.065
UniProt P50395 and related entries | 0.966 ± 0.022 | 0.999 ± 0.023 | 0.916 ± 0.02 | 0.899 ± 0.0095 | 0.882 ± 0.012 | 0.89 ± 0.017 | 0.859 ± 0.04 | 0.829 ± 0.057
CDKN2C (UniProt P42773) | 0.85 ± 0.13 | 0.753 ± 0.079 | 1.12 ± 0.24 | 0.961 ± 0.14 | 0.931 ± 0.051 | 1.06 ± 0.11 | 0.884 ± 0.17 | 0.968 ± 0.32
UniProt P42331 and related entries | 1.037 ± 0.002 | 1.03 ± 0.029 | 1.01 ± 0.065 | 1.01 ± 0.06 | 0.966 ± 0.051 | 0.982 ± 0.049 | 0.979 ± 0.023 | 0.967 ± 0.066

Complete entries, quoted from the list. Values in the order: NP40-soluble protein abundance (concentration: 0.1mM) | NP40-soluble protein abundance (concentration: 0.5mM) | NP40-soluble protein abundance (concentration: 1mM) | NP40-soluble protein abundance (concentration: 2mM) | NP40-soluble protein abundance (concentration: 4mM) | NP40-soluble protein abundance (concentration: 6mM) | NP40-soluble protein abundance (concentration: 8mM) | NP40-soluble protein abundance (concentration: 10mM)
UniProt P36507 in the list: 0.969 ± 0.0035 | 0.978 ± 0.017 | 0.956 ± 0.037 | 0.908 ± 0.044 | 0.891 ± 0.04 | 0.891 ± 0.083 | 0.874 ± 0.039 | 0.849 ± 0.065
RFC2 (UniProt P35250) in the list: 1.08 ± 0.011 | 1.08 ± 0.049 | 1.11 ± 0.05 | 1.16 ± 0.086 | 1.23 ± 0.075 | 1.2 ± 0.092 | 1.21 ± 0.057 | 1.17 ± 0.042
